No constants are given. Whether binding was seen depends on the method and setting. For part of these data: In cells and extracts the contact can be indirect. Some entries that bind do so weakly or less than the wild type. For part of these data: Sequences can lack the tags named with a protein. Values belong to the substance of their own block, whether it stands above or below them.
Tests used:
[1] = molecular target: T1, PDZD8-3×HA (endogenous PDZD8 of the Pdzd8-3×HA knock-in mouse) (mouse (endogenous in neocortex, knock-in)) (UniProt B9EJ80); test: co-IP
T1 sequence: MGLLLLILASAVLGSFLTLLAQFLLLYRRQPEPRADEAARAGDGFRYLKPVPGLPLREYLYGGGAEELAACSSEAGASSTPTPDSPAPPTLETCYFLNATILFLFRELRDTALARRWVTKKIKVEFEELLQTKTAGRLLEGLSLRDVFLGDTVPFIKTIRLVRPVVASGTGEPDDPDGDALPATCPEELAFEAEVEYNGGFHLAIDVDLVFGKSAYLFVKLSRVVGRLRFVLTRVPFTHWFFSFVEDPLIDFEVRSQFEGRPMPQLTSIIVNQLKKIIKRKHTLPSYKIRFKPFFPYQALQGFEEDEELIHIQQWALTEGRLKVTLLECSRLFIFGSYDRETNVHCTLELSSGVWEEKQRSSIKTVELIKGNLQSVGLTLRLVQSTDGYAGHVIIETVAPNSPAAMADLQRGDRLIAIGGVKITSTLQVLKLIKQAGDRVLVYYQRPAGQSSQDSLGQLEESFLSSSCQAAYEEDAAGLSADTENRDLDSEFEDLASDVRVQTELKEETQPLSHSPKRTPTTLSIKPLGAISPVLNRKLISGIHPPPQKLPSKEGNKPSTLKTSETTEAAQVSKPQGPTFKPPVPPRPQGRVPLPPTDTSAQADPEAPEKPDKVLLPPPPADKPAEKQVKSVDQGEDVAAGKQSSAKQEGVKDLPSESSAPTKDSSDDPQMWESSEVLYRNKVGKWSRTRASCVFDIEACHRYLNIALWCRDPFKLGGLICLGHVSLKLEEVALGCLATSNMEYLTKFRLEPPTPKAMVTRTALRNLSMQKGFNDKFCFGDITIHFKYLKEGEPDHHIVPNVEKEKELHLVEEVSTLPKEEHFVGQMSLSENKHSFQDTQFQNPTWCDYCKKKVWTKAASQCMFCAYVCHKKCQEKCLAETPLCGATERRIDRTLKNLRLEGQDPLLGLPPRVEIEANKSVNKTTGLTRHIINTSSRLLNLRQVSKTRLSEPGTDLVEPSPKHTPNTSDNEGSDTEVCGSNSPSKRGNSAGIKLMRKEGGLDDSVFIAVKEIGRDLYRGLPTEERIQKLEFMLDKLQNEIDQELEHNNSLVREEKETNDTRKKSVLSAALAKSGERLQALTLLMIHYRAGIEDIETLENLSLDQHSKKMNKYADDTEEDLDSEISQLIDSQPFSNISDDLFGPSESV

By UniProt entry, the sequences of proteins in these tests, tags left out. Residues count along the entry.
UniProt O35465: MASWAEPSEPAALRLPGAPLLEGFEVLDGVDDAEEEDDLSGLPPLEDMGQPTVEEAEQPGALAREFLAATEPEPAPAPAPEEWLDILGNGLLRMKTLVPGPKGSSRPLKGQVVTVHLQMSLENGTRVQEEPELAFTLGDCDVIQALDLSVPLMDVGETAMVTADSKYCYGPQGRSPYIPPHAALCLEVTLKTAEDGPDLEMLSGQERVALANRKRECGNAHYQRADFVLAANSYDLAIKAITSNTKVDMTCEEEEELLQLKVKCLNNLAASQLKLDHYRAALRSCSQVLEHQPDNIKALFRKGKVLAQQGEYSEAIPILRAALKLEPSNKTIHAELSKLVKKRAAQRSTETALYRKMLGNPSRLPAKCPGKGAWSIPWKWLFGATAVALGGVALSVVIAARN
UniProt Q14318, residues 1-380: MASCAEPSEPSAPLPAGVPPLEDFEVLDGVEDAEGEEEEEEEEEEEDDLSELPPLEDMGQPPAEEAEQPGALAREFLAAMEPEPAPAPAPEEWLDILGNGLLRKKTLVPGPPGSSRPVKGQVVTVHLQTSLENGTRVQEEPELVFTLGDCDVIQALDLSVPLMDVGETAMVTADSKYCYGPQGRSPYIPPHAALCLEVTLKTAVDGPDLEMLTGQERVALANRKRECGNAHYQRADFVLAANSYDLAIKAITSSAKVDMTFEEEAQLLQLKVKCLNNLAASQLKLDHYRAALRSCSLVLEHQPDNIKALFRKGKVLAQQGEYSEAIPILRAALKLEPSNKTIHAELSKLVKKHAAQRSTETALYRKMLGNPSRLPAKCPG

[2] = molecular target: T2, Recombinant GST - Thrombin cleavage site - human PDZD8 (1,28-506) - HA (human) (UniProt Q8NEN9); test: pull-down
T2 sequence: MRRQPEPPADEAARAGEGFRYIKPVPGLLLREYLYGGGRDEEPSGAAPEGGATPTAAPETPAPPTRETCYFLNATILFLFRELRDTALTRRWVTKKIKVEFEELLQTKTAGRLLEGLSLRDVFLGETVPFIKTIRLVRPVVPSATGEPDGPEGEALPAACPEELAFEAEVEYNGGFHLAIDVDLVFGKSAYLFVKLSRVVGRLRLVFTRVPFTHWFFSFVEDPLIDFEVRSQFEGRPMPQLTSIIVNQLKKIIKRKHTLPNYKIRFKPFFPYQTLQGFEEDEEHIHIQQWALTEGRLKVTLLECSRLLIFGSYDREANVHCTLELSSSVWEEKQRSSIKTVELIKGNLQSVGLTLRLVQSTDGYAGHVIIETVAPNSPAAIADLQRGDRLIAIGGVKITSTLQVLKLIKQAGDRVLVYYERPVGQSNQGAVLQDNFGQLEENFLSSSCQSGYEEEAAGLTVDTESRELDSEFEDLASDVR

[3] = molecular target: T3, PDZD8-Venus (endogenous PDZD8 of Pdzd8-Venus KI NIH3T3 cells) (mouse (endogenous in NIH3T3, knock-in)) (UniProt B9EJ80); test: co-IP
T3 sequence: T1 sequence

binding [1]: binds
Substance: FK506 binding protein 8 (FKBP8), endogenous, mouse neocortex (from UniProt O35465 1-402)

binding [2]: binds
Substance: Recombinant human FKBP8 (1-380) - Histag (from UniProt Q14318 1-380) (domain or fragment)

binding [3]: binds
Substance: FKBP8, endogenous, NIH3T3 cells (from UniProt O35465 1-402)
